Measurements: article PMC6773726, “The ubiquitin-like modifier FAT10 interferes with SUMO activation” (Nature Communications, 2019)
Where a chain is given by its changes, count along the chain named. These are yes or no findings as the source states them, for the method shown. For some of these results: In cells and extracts the contact can be indirect. Some entries that bind do so weakly or less than the wild type. For some of these results: Sequences can lack the tags named with a protein.

B1: JunB-FLAG (JunB with a C-terminal FLAG-tag) (protein, UniProt P17275 1-347)
chain: MCTKMEQPFYHDDSYTATGYGRAPGGLSLHDYKLLKPSLAVNLADPYRSLKAPGARGPGPEGGGGGSYFSGQGSDTGASLKLASSELERLIVPNSNGVITTTPTPPGQYFYPRGGGSGGGAGGAGGGVTEEQEGFADGFVKALDDLHKMNHVTPPNVSLGATGGPPAGPGGVYAGPEPPPVYTNLSSYSPASASSGGAGAAVGTGSSYPTTTISYLPHAPPFAGGHPAQLGLGRGASTFKEEPQTVPEARSRDATPPVSPINMEDQERIKVERKRLRNRLAATKCRKRKLERIARLEDKVKTLKAENAGLSSTAGLLREQVAQLKQKVMTHVSNGCQLLLGVKGHAF
B2: FAT10-AV, recombinant, untagged (natural protein, human, UniProt O15205 2-165, looked up)
chain: APNASCLCVHVRSEEWDLMTFDANPYDSVKKIKEHVRSKTKVPVQDQVLLLGSKILKPRRSLSSYGIDKEKTIHLTLKVVKPSDEELPLFLVESGDEAKRHLLQVRRSSSVAQVKAMIETKTGIIPETQIVTCNGKRLEDGKMMADYGIRKGNLLFLACYCIAV
notes: FAT10 (ubiquitin D, UBD), human, C-terminal diglycine motif changed from GG to AV; also called FAT10 diglycine mutant FAT10-AV; source: E. coli BL21(DE3) (pSUMO-FAT10-AV), purified (HisTrap, tag removal with ULP-1, cation exchange)
B3: FAT10, recombinant, untagged (natural protein, human, UniProt O15205 2-165, looked up)
chain: B2 chain with A163G, V164G
notes: FAT10 (ubiquitin D, UBD), human; also called wild-type FAT10; source: E. coli BL21(DE3) (pSUMO-FAT10), purified (HisTrap, tag removal with ULP-1, cation exchange)

Experiments:
[1] = biological target: HA-FAT10-AV (conjugation incompetent diglycine mutant) (human) (UniProt O15205); assay: co-IP; HEK293 cells transiently transfected; NP-40 lysate; immunoprecipitation with anti-HA agarose against HA-FAT10, blot for FLAG; with or without 10 uM MG132 for 6 h
[2] = biological target: HA-FAT10 (HLA-F adjacent transcript 10, HA-tagged) (human) (UniProt O15205); assay: as above
[3] = biological target: T1, 6-His-AOS1 (subunit of recombinant AOS1/UBA2) (human) (UniProt Q9UBE0); assay: cross-linking; XL-MS with H12/D12 BS3; AOS1/UBA2 and FAT10 or FAT10-AV at a molar ratio of about 1:6, 10 min on ice, crosslinked 30 min at 37 °C, in the absence of ATP; Tris buffer; both purified
T1 sequence: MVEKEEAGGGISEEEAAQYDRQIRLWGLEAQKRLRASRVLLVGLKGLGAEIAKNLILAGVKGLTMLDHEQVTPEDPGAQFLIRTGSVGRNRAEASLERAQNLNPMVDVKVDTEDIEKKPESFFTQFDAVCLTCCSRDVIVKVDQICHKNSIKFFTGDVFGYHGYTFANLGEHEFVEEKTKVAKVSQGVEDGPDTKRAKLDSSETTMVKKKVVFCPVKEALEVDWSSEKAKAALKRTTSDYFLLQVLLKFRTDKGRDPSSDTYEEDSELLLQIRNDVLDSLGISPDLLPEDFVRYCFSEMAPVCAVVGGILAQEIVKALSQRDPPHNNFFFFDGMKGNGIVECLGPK

[4] = biological target: T2, UBA2 (subunit of recombinant AOS1/UBA2) (human) (UniProt Q9UBT2); assay: as above
T2 sequence: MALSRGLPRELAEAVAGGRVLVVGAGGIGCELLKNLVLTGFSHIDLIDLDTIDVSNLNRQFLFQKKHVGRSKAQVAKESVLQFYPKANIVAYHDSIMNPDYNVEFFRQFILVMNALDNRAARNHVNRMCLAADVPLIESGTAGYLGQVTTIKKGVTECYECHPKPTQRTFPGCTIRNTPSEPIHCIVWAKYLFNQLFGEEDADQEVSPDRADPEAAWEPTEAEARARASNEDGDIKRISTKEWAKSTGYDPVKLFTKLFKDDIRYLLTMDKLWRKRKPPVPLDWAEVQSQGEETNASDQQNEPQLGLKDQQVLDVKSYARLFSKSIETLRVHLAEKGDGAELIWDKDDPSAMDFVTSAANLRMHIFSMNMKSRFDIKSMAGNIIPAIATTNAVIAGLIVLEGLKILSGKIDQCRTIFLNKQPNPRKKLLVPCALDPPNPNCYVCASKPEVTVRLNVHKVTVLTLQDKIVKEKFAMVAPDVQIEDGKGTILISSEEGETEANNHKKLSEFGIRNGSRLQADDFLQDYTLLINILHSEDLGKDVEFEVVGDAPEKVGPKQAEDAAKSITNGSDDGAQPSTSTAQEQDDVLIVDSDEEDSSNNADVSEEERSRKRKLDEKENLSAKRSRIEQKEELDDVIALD

[5] = biological target: T1, 6-His-AOS1 (subunit of recombinant AOS1/UBA2) (human); assay: cross-linking; quantitative XL-MS with H12/D12 BS3; AOS1/UBA2 alone, with SUMO-1 (1:4) or with SUMO-1 and FAT10 (1:4:4), 15 min at 30 °C in reaction buffer with 4 mM ATP, crosslinked 30 min at 37 °C; both purified

Binder | binding [1] | binding [2] | binding [3] | binding [4] | binding [5]
B1 | binds | binds | – | – | –
B2 | – | – | binds | binds | –
B3 | – | – | binds | binds | binds
